PubChem BioAssay AID504744 – Drosophila RNAi Screening Center – 2011
The deposit covers about 23,000 reagents; shown is an unselected part of those with a known target gene and a result. Of all reagents, 98 (0.43%) got an active call. 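Only hit calls are given; the phospho-dAkt signals, z-scores and hit direction were not deposited.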 Names joined by + are all predicted targets of the reagent.

Assay: 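Uncover factors, including feedback loops, that control dAkt activation in fly cells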 (primary screen)
Cells: Drosophila Kc167 cells
Reagents: long dsRNA against Drosophila genes, 250 ng dsRNA per well of a 384-well plate
Duration: 3 days of knock-down, then overnight serum-free starvation before stimulation
Conditions: bovine insulin at 387 nM for 10 minutes after 12 h without serum
Measured: 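Per-well phospho-dAkt level from an in-cell fluorescent antibody stain, divided by a DNA-dye signal; log2 residuals turned into z-scores that take cell number into account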
Active means: 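Under insulin, a gene counts as a hit if the average z-score of two replicates lies above 2.5 or below -2.5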

| Target gene | dsRNA | call |
| --- | --- | --- |
| soti | DRSC16432 | inactive |
| CG9072 | DRSC20147 | inactive |
| Cdep | DRSC12028 | inactive |
| Cdep | DRSC12220 | inactive |
| Cdep | DRSC12291 | inactive |
| Hsf | DRSC07443 | inactive |
| fl(2)d | DRSC07620 | inactive |
| CG33307 | DRSC01349 | inactive |
| Pdhb | DRSC14420 | inactive |
| CG7706 | DRSC16295 | inactive |
| CG13040 | DRSC09921 | inactive |
| beat-Ic | DRSC01524 | inactive |
| beat-Ic | DRSC03491 | inactive |
| und | DRSC03629 | inactive |
| Rap2l | DRSC04646 | inactive |
| RpS15 | DRSC07151 | inactive |
| CG13843 | DRSC14693 | inactive |
| CG14443 | DRSC17936 | inactive |
| CG9265 | DRSC03178 | inactive |
| CG9265 | DRSC03179 | inactive |
| GstT1 | DRSC06243 | inactive |
| CG12307 | DRSC02159 | inactive |
| Klp67A + CG34456 | DRSC10420 | inactive |
| CG12811 | DRSC14549 | inactive |
| CG33287 | DRSC22929 | inactive |
| CG3191 | DRSC18530 | inactive |
| lok | DRSC03567 | inactive |
| ninaA | DRSC00830 | inactive |
| CG34354 | DRSC13863 | inactive |
| CG34354 | DRSC14515 | inactive |
| CG34354 | DRSC14558 | inactive |
| CG34354 | DRSC15645 | inactive |
| pAbp | DRSC07659 | inactive |
| CG15432 | DRSC00447 | inactive |
| eEF1alpha2 | DRSC14079 | inactive |
| eEF1alpha2 | DRSC16658 | inactive |
| CRAT | DRSC12523 | inactive |
| sc | DRSC18830 | inactive |
| CG42299 + CG42300 | DRSC19680 | inactive |
| CG42299 + CG42300 | DRSC19815 | inactive |
| CG18585 | DRSC02678 | inactive |
| CG1494 | DRSC20509 | inactive |
| Or45a | DRSC07487 | inactive |
| Nmd3 | DRSC18687 | inactive |
| Nmd3 | DRSC22834 | inactive |
| DppIII | DRSC16241 | inactive |
| T3dh + pgc | DRSC04659 | inactive |
| amon | DRSC13784 | inactive |
| amon | DRSC16900 | inactive |
| CG4968 | DRSC02794 | inactive |
| Myt1 | DRSC11228 | inactive |
| icln | DRSC07630 | inactive |
| Xrcc2 | DRSC19984 | inactive |
| galla-1 | DRSC05987 | inactive |
| CG30447 | DRSC05820 | inactive |
| ttm3 | DRSC03736 | inactive |
| CG7483 | DRSC16249 | inactive |
| CG7483 | DRSC22432 | inactive |
| CG42445 | DRSC10858 | inactive |
| CG15717 | DRSC19684 | inactive |
| CG7011 + Prp31 | DRSC10760 | inactive |
| CG6686 | DRSC02979 | inactive |
| Obp83cd | DRSC12267 | inactive |
| dor | DRSC18765 | inactive |
| RpL3 | DRSC16834 | inactive |
| CG13723 | DRSC10052 | inactive |
| beta'COP | DRSC03492 | inactive |
| CG33631 | DRSC12763 | inactive |
| Ttc26 | DRSC15591 | inactive |
| CG10413 | DRSC02052 | inactive |
| IFT54 | DRSC15469 | inactive |
| CG1999 | DRSC18199 | inactive |
| CG11629 | DRSC03695 | inactive |

Next part, starting with the last 11 of the part before.
| Target gene | dsRNA | call |
| --- | --- | --- |
| Obp83cd | DRSC12267 | inactive |
| dor | DRSC18765 | inactive |
| RpL3 | DRSC16834 | inactive |
| CG13723 | DRSC10052 | inactive |
| beta'COP | DRSC03492 | inactive |
| CG33631 | DRSC12763 | inactive |
| Ttc26 | DRSC15591 | inactive |
| CG10413 | DRSC02052 | inactive |
| IFT54 | DRSC15469 | inactive |
| CG1999 | DRSC18199 | inactive |
| CG11629 | DRSC03695 | inactive |
| Sodh2 | DRSC16865 | inactive |
| TTLL5 | DRSC14181 | inactive |
| Nxt1 | DRSC04630 | inactive |
| hay | DRSC11354 | inactive |
| CG13995 | DRSC00907 | inactive |
| CG13995 | DRSC02327 | inactive |
| CG13995 | DRSC22767 | inactive |
| Polr3C | DRSC14490 | active |
| unc-104 | DRSC07710 | inactive |
| CG32263 | DRSC22431 | inactive |
| CG31231 | DRSC13308 | inactive |
| CG14434 | DRSC17927 | inactive |
| osi | DRSC02931 | inactive |
| Tsp | DRSC02144 | inactive |
| Tsp | DRSC02145 | inactive |
| CG3517 | DRSC15492 | inactive |
| IntS14 | DRSC00668 | inactive |
| CG30389 | DRSC04077 | inactive |
| CG30389 | DRSC04452 | inactive |
| CG5565 | DRSC00690 | inactive |
| CG31419 | DRSC15771 | inactive |
| CG12692 | DRSC17881 | inactive |
| Gtpx | DRSC08221 | inactive |
| Gtpx | DRSC22117 | inactive |
| CG13557 | DRSC04195 | inactive |
| Pex1 | DRSC11358 | inactive |
| CG5938 | DRSC15923 | inactive |
| Ugt49B1 | DRSC04461 | inactive |
| ppk21 | DRSC14466 | inactive |
| CG5089 | DRSC06914 | inactive |
| CG18294 + 825-Oak + CG32214 + 2 more | DRSC22210 | inactive |
| CG12951 | DRSC14579 | inactive |
| Cpr5C | DRSC18340 | inactive |
| Vps24 | DRSC12332 | inactive |
| Tk | DRSC14954 | inactive |
| Tk | DRSC21972 | inactive |
| CG4686 | DRSC15622 | inactive |
| He + NimB5 | DRSC22876 | inactive |
| Bulli | DRSC10974 | inactive |
| CG34047 (retired record) | DRSC07857 | inactive |
| CG34047 (retired record) | DRSC21689 | inactive |
| CG11035 | DRSC14287 | inactive |
| Phax | DRSC07066 | inactive |
| CG12766 | DRSC08295 | inactive |
| Cpr50Ca | DRSC05454 | inactive |
| Cpr50Ca | DRSC06372 | inactive |
| Cpr50Ca | DRSC06375 | inactive |
| Sans | DRSC06357 | inactive |
| CG9806 | DRSC18444 | inactive |
| RpL40 | DRSC00782 | inactive |
| frj | DRSC03250 | inactive |
| CG13088 | DRSC02192 | inactive |
| spn-B | DRSC17063 | inactive |
| Sf3a1 | DRSC15166 | inactive |
| knrl | DRSC11892 | inactive |
| inaF-B | DRSC18903 | inactive |
| lobo | DRSC14662 | inactive |
| lobo | DRSC14663 | inactive |
| trh | DRSC08355 | inactive |
| trh | DRSC08739 | inactive |
| Fer3 | DRSC16133 | inactive |
| CG17564 | DRSC02626 | inactive |
| CG17698 | DRSC11907 | inactive |
| ALiX | DRSC14564 | inactive |
| Thor | DRSC00770 | inactive |
| Alas | DRSC04044 | inactive |
| CG8180 | DRSC07092 | inactive |
| CG8180 | DRSC07093 | inactive |
| rod | DRSC17047 | inactive |
| beat-Ia | DRSC03489 | inactive |
| CG17999 | DRSC04300 | inactive |
| CG12902 | DRSC06217 | inactive |
| AstA-R2 | DRSC14171 | inactive |
| Gbeta5 | DRSC17754 | inactive |
| Tab2 | DRSC07481 | inactive |
| Cdc6 | DRSC10563 | inactive |
| Ret | DRSC03409 | inactive |
| Ret | DRSC03410 | inactive |
| meng | DRSC02134 | inactive |
| CG34033 | DRSC05190 | inactive |
| Remo | DRSC19710 | inactive |
| ACXC | DRSC00846 | inactive |
| Patsas | DRSC02975 | inactive |
| CG31115 | DRSC13692 | inactive |
| p130CAS + Dic61B | DRSC08588 | inactive |
| Dhpr | DRSC11135 | inactive |
| CG10512 | DRSC11615 | inactive |
| Adgf-A2 | DRSC09507 | inactive |
| CG31251 | DRSC16247 | inactive |
| CG13671 | DRSC10030 | inactive |
| CG43996 | DRSC19456 | inactive |
| CG43996 | DRSC19457 | inactive |
| CG8388 | DRSC07157 | inactive |
| Zn72D | DRSC11318 | inactive |
| CG15747 | DRSC19713 | inactive |
| bmm | DRSC10502 | inactive |
| CG11350 | DRSC08181 | inactive |
| Arf6 | DRSC05921 | inactive |
| GluRS-m | DRSC10431 | inactive |
| Mrp4 | DRSC14931 | inactive |
| Vps35 | DRSC04519 | inactive |
| CG8441 | DRSC07180 | inactive |
| BubR1 | DRSC04838 | inactive |
| Cyp28a5 | DRSC03297 | inactive |
| CG7420 | DRSC00704 | inactive |
| CG9784 | DRSC20210 | inactive |
| l(3)neo43 | DRSC14988 | inactive |
| CG1850 | DRSC06762 | inactive |
| CG5435 | DRSC02860 | inactive |
| Polr2C | DRSC03415 | inactive |
| TRAM | DRSC18178 | inactive |
| TRAM | DRSC18651 | inactive |
| CG2614 | DRSC02711 | inactive |
| RanGAP | DRSC22003 | inactive |
| MICU1 | DRSC02752 | inactive |
| CCT1 | DRSC16877 | inactive |
| CG3739 | DRSC15510 | inactive |
| para | DRSC19141 | inactive |
| para | DRSC20360 | inactive |
| arr | DRSC07451 | inactive |
| CG6508 | DRSC02963 | inactive |
| betaTry | DRSC07582 | inactive |
| betaTry | DRSC22377 | inactive |
| cer | DRSC05992 | inactive |
| CG15029 (retired record) | DRSC19610 | inactive |
| Cyp4ac3 | DRSC03304 | inactive |
| slx1 | DRSC12290 | inactive |
